The test addresses T1, full-length SFPQ (splicing factor proline- and glutamine-rich) (Homo sapiens), P23246.
T1 chain: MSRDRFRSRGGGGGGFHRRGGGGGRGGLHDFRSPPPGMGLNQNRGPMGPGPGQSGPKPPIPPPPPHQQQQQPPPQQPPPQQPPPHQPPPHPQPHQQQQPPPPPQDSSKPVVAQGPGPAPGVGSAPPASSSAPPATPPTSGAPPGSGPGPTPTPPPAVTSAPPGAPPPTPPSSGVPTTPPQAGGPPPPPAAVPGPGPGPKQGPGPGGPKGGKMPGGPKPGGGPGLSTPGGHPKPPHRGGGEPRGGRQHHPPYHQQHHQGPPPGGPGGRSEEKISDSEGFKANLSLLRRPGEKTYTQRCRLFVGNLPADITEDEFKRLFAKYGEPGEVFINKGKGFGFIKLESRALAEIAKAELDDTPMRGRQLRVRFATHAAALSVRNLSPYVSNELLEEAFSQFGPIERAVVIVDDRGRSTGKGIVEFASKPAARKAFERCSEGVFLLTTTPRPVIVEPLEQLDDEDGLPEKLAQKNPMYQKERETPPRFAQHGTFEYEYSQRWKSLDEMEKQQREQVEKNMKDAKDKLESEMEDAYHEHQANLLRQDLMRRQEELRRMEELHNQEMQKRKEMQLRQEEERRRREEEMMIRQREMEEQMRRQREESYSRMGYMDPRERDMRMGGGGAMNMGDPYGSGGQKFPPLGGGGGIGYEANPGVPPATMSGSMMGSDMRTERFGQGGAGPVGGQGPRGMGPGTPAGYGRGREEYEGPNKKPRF
The test can be described thus: contrast-matching SANS; static cell, 1:20 hSFPQ:dSFPQ concentrated to 48 mg/ml, dialysed into 150 mM KCl, 0.075% glycerol, 20 mM HEPES, 0.5 mM DTT pH 7.4 in 95% D2O (match-point of dSFPQ); only the protiated chains scatter; both purified. As to conditions: remark: other sources report otherwise.

These are yes or no findings as the source states them, for the method shown. Some results given as binding are weak or reduced against the parent protein; the word gives no strength.

B1: full-length SFPQ (splicing factor proline- and glutamine-rich), P23246 1-707 (natural protein)
chain: MSRDRFRSRGGGGGGFHRRGGGGGRGGLHDFRSPPPGMGLNQNRGPMGPGPGQSGPKPPIPPPPPHQQQQQPPPQQPPPQQPPPHQPPPHPQPHQQQQPPPPPQDSSKPVVAQGPGPAPGVGSAPPASSSAPPATPPTSGAPPGSGPGPTPTPPPAVTSAPPGAPPPTPPSSGVPTTPPQAGGPPPPPAAVPGPGPGPKQGPGPGGPKGGKMPGGPKPGGGPGLSTPGGHPKPPHRGGGEPRGGRQHHPPYHQQHHQGPPPGGPGGRSEEKISDSEGFKANLSLLRRPGEKTYTQRCRLFVGNLPADITEDEFKRLFAKYGEPGEVFINKGKGFGFIKLESRALAEIAKAELDDTPMRGRQLRVRFATHAAALSVRNLSPYVSNELLEEAFSQFGPIERAVVIVDDRGRSTGKGIVEFASKPAARKAFERCSEGVFLLTTTPRPVIVEPLEQLDDEDGLPEKLAQKNPMYQKERETPPRFAQHGTFEYEYSQRWKSLDEMEKQQREQVEKNMKDAKDKLESEMEDAYHEHQANLLRQDLMRRQEELRRMEELHNQEMQKRKEMQLRQEEERRRREEEMMIRQREMEEQMRRQREESYSRMGYMDPRERDMRMGGGGAMNMGDPYGSGGQKFPPLGGGGGIGYEANPGVPPATMSGSMMGSDMRTERFGQGGAGPVGGQGPRGMGPGTPAGYGRGREEYEGPNKKPRF
For B1, the binding result is reported as “binds”.

Source of the values: PMC12216677, “Structural dynamics of IDR interactions in human SFPQ and implications for liquid–liquid phase separation” (Acta Crystallographica Section D: Structural Biology, 2025).
